{"source": "the supplement of paper PMC3334620", "note": "Over roughly 33,000 sequences, “E-score (-0.5 to 0.5)” has its median near -0.015; the highest 2% begin near 0.3. This is one part of the list.", "data": [{"target": "T1, Abf1 (UniProt P14164)", "T1 sequence": "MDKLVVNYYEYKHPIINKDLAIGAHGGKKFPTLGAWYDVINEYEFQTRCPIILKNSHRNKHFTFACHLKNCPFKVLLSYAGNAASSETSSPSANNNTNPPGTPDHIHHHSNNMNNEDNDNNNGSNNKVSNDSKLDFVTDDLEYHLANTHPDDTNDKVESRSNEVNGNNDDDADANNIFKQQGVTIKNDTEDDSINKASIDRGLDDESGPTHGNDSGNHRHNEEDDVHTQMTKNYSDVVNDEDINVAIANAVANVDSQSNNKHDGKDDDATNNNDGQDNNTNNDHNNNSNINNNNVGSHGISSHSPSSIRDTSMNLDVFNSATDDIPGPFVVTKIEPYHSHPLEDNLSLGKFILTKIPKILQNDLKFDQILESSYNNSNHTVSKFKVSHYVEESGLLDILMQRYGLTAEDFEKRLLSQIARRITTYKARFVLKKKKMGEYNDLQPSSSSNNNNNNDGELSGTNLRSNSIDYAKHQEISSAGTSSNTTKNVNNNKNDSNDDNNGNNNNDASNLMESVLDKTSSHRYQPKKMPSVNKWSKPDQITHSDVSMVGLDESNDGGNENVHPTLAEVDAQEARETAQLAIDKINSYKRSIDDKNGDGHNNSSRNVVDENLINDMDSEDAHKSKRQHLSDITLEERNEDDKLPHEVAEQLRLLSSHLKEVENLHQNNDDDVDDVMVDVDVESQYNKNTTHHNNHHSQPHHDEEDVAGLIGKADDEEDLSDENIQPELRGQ", "assay": "PBM E-score (8-mer binding enrichment) (E-score (-0.5 to 0.5)); higher = stronger / more preferred TF binding", "conditions": "protein concentration: 200 nM; construct: GST-full length", "procedure,_shortened": "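Each ungapped eight-base word and its reverse complement, pooled, received an E-score from the Universal PBM Analysis Suite. Underlying scans, normalised with masliner, recorded fluorescent anti-GST bound to GST-tagged yeast transcription factors. These were applied at about 100-200 nM to universal all-10-mer Agilent arrays double-stranded by primer extension.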", "values": [{"sequence": "AAAGCGGG", "PBM E-score": -0.107}, {"sequence": "GCAACGAC", "PBM E-score": 0.0784}, {"sequence": "CTCATGTA", "PBM E-score": -0.0922}, {"sequence": "AATCGAAA", "PBM E-score": 0.126}, {"sequence": "AGGACCCC", "PBM E-score": -0.0335}, {"sequence": "CGGGCCCA", "PBM E-score": -0.111}, {"sequence": "CCGATTCA", "PBM E-score": -0.15}, {"sequence": "CAACGACC", "PBM E-score": 0.0123}, {"sequence": "GTGGGAAA", "PBM E-score": 0.0642}, {"sequence": "ATTAGACC", "PBM E-score": -0.183}, {"sequence": "CCGCAAAA", "PBM E-score": -0.147}, {"sequence": "CTCACCCA", "PBM E-score": -0.0983}, {"sequence": "CCGGGTAC", "PBM E-score": -0.0694}, {"sequence": "AACAACTT", "PBM E-score": 0.0669}, {"sequence": "GCCACGGA", "PBM E-score": 0.0521}, {"sequence": "CTCCCATC", "PBM E-score": -0.171}, {"sequence": "CAGAGACA", "PBM E-score": -0.226}, {"sequence": "ACACCTCT", "PBM E-score": -0.134}, {"sequence": "ATTAGTAG", "PBM E-score": 0.0439}, {"sequence": "GACTATCC", "PBM E-score": 0.089}, {"sequence": "TTATGAAA", "PBM E-score": 0.0001}, {"sequence": "AGCTCGTC", "PBM E-score": 0.159}, {"sequence": "GCTGCAAA", "PBM E-score": 0.0471}, {"sequence": "GAATTAGA", "PBM E-score": 0.0737}, {"sequence": "ACACTTTG", "PBM E-score": 0.199}, {"sequence": "ACAACTTC", "PBM E-score": 0.00296}, {"sequence": "CGGCCTCA", "PBM E-score": 0.11}, {"sequence": "TAGCGAGA", "PBM E-score": 0.0414}, {"sequence": "CCGATGCC", "PBM E-score": -0.218}, {"sequence": "ATTTGCGG", "PBM E-score": -0.182}, {"sequence": "CACTCCGG", "PBM E-score": 0.0589}, {"sequence": "CAATCCTG", "PBM E-score": -0.0511}, {"sequence": "CGCCGGAC", "PBM E-score": -0.0875}, {"sequence": "ATGGCTGA", "PBM E-score": -0.123}, {"sequence": "AATCGAAG", "PBM E-score": 0.14}, {"sequence": "AGACCCGA", "PBM E-score": -0.19}, {"sequence": "CCGCGTCA", "PBM E-score": -0.283}, {"sequence": "AGCCTAGC", "PBM E-score": -0.159}, {"sequence": "AACCCTCT", "PBM E-score": -0.161}, {"sequence": "TAGCACGA", "PBM E-score": 0.158}, {"sequence": "ACCTCTTG", "PBM E-score": -0.183}, {"sequence": "TGCTACCA", "PBM E-score": -0.0801}, {"sequence": "CTACACTC", "PBM E-score": -0.0175}, {"sequence": "AACCCGAA", "PBM E-score": 0.0202}, {"sequence": "CGGGTGGC", "PBM E-score": -0.0962}, {"sequence": "AGGCTTTG", "PBM E-score": -0.262}, {"sequence": "CCGTGACA", "PBM E-score": 0.363}, {"sequence": "AGGTCATG", "PBM E-score": 0.159}, {"sequence": "GTATCTGA", "PBM E-score": 0.0476}, {"sequence": "GATCTGTA", "PBM E-score": -0.124}, {"sequence": "TTAGTCAA", "PBM E-score": -0.0955}, {"sequence": "ATGCTCGG", "PBM E-score": -0.0743}, {"sequence": "AGGTCAGA", "PBM E-score": -0.217}, {"sequence": "AAGTGGAT", "PBM E-score": -0.167}, {"sequence": "AAACGTCT", "PBM E-score": 0.123}, {"sequence": "CGTTGTCA", "PBM E-score": 0.273}, {"sequence": "CTCCCGGC", "PBM E-score": -0.0528}, {"sequence": "ATACTTCC", "PBM E-score": 0.0781}, {"sequence": "CAACTGTC", "PBM E-score": 0.00892}, {"sequence": "CCGAGGCC", "PBM E-score": -0.17}, {"sequence": "GTCGATGA", "PBM E-score": 0.0873}, {"sequence": "GCGAGGTA", "PBM E-score": 0.0313}, {"sequence": "CGATCTGC", "PBM E-score": -0.042}, {"sequence": "GAATACTC", "PBM E-score": -0.0282}, {"sequence": "ATACGAGA", "PBM E-score": 0.105}, {"sequence": "ACGTGGGG", "PBM E-score": 0.0297}, {"sequence": "GACTGGGC", "PBM E-score": -0.208}, {"sequence": "CTCTGCTC", "PBM E-score": -0.244}, {"sequence": "AGCTTAAT", "PBM E-score": -0.064}, {"sequence": "CGTTGAAG", "PBM E-score": -0.00638}, {"sequence": "ACAGGGGA", "PBM E-score": -0.209}, {"sequence": "AGTCAGCA", "PBM E-score": 0.123}, {"sequence": "CCTTGTCC", "PBM E-score": -0.121}, {"sequence": "TACGTGGA", "PBM E-score": 0.0655}, {"sequence": "ATACTTGC", "PBM E-score": 0.023}, {"sequence": "GCGAGTAC", "PBM E-score": -0.0176}, {"sequence": "CCTCTAGA", "PBM E-score": 0.0683}, {"sequence": "ACAAACCA", "PBM E-score": -0.156}, {"sequence": "AACGCGCA", "PBM E-score": 0.0126}, {"sequence": "ACTGCTGA", "PBM E-score": -0.131}, {"sequence": "AAATGAAG", "PBM E-score": -0.0486}, {"sequence": "CTGAGTAA", "PBM E-score": -0.214}, {"sequence": "ATAATAAC", "PBM E-score": 0.159}, {"sequence": "ACTCCACG", "PBM E-score": -0.0354}, {"sequence": "CTAAGCCA", "PBM E-score": -0.0473}, {"sequence": "AGAATAAG", "PBM E-score": 0.0705}]}]}
